# Results reported in the supplement of paper PMC7666118.
# By UniProt entry, the sequences of proteins in these tests, tags left out. Where a name states a change or a piece, a line headed by the entry shows the natural chain unless it says otherwise.
# UniProt Q8N6N3: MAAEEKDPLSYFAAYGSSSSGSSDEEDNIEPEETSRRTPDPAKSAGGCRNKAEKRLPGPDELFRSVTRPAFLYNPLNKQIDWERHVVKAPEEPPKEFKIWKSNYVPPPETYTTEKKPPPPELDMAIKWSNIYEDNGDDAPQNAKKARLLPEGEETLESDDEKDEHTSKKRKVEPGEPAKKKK
# UniProt O75531: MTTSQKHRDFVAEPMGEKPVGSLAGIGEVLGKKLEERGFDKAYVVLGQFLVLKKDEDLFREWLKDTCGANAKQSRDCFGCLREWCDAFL
# UniProt P49407: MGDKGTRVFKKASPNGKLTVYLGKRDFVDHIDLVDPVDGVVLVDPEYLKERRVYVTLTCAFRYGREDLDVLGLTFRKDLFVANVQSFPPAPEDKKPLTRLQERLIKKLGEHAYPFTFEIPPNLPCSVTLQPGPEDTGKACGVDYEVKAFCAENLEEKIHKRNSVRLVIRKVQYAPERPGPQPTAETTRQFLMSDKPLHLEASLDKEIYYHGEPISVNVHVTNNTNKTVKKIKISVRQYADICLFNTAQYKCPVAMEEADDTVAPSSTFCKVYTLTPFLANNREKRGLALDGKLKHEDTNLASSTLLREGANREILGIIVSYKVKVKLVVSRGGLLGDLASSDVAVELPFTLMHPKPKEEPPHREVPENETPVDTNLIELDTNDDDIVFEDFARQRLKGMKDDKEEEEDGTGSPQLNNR
# UniProt Q8NFD5, whole entry: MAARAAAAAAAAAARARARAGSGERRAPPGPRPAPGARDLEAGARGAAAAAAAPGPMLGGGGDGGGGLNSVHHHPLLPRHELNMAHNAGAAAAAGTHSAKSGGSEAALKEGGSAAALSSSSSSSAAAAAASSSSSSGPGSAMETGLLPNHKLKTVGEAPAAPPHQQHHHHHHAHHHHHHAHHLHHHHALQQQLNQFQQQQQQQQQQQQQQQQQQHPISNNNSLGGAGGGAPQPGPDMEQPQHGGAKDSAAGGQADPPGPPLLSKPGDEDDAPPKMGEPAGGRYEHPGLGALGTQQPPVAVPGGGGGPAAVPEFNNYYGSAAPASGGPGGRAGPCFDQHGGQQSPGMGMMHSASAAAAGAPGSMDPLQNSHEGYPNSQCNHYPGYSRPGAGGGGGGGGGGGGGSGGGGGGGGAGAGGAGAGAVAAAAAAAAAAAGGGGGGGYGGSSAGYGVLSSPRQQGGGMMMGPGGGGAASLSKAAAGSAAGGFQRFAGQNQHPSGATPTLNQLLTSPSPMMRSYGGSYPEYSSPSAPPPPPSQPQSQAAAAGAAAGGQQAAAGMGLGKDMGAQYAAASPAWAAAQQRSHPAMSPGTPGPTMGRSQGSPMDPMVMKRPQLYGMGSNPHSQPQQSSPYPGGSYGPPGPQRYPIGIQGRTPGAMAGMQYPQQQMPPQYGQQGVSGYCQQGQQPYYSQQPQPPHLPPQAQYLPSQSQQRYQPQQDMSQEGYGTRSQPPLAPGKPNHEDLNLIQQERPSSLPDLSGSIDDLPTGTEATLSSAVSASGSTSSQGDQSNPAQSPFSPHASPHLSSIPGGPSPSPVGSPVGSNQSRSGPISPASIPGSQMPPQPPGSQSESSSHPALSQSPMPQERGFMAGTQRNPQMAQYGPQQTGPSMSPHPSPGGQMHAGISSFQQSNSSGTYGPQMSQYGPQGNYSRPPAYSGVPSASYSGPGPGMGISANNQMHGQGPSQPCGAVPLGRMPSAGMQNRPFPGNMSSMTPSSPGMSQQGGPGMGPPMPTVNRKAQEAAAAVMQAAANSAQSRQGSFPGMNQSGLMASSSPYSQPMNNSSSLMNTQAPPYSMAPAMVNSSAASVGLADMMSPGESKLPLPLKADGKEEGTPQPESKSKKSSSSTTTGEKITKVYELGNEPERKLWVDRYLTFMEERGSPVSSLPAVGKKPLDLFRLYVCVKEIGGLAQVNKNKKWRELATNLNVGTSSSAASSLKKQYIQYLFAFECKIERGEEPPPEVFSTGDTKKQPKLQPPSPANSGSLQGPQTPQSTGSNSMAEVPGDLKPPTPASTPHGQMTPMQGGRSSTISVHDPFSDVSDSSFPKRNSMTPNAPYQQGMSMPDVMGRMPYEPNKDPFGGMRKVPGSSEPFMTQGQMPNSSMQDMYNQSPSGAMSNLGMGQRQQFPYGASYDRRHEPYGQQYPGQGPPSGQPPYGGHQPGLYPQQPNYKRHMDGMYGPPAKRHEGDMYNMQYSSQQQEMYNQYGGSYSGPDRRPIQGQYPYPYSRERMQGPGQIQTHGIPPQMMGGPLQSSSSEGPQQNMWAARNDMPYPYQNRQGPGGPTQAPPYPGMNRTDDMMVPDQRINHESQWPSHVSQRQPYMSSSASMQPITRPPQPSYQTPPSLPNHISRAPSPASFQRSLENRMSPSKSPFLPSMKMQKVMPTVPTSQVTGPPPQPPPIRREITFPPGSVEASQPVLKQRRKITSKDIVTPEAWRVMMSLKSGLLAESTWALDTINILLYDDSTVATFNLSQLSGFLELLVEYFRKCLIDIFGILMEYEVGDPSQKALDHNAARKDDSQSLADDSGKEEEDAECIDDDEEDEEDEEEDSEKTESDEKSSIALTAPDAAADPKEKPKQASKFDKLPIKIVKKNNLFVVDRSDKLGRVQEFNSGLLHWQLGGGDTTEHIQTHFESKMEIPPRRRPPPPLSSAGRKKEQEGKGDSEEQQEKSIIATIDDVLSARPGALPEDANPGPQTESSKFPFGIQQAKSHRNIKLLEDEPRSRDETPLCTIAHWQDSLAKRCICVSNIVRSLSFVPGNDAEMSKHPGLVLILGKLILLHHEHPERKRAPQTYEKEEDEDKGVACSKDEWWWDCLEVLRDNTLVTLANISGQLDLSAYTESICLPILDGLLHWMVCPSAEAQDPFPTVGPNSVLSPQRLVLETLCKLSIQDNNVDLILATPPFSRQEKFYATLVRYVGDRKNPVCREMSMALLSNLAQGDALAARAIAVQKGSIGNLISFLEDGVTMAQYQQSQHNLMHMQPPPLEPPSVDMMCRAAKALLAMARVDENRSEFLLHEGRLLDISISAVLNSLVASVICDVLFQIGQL
# UniProt O43681: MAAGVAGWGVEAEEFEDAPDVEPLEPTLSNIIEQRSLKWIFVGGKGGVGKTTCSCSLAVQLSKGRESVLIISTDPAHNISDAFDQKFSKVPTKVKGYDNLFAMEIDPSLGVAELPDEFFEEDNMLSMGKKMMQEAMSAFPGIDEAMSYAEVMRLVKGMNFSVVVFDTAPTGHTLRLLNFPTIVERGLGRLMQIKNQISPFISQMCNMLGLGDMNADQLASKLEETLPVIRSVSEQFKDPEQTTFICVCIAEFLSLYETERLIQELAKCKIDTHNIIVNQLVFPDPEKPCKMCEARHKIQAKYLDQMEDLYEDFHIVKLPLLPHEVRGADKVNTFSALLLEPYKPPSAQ
# UniProt Q9Y6E2: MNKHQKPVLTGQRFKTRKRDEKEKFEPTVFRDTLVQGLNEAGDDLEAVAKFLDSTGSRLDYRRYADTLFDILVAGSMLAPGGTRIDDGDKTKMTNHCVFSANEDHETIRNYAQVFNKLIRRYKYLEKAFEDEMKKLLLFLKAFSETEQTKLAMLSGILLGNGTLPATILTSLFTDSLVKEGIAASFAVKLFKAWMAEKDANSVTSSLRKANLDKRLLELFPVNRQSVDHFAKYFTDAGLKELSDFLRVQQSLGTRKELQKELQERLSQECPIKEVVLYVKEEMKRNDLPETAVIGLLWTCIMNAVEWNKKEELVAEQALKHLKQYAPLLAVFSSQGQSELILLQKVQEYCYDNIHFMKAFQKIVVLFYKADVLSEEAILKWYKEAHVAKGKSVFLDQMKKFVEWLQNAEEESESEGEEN
# UniProt Q8IXQ3: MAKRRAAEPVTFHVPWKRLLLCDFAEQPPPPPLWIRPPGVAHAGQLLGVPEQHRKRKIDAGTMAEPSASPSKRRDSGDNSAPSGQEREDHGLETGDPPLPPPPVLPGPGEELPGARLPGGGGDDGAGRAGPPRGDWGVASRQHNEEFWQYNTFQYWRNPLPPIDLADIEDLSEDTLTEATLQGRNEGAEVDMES
# UniProt Q8IU85: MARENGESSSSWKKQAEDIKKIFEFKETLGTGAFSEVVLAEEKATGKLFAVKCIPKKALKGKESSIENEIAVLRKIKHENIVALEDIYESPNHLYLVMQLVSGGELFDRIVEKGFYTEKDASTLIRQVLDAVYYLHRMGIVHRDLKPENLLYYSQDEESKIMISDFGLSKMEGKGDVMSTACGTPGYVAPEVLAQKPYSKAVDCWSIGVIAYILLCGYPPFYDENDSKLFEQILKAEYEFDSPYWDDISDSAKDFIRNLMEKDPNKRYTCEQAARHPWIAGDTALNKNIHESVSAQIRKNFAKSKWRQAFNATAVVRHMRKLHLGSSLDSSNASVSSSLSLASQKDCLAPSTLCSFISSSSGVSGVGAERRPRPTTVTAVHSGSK
# UniProt P27797, whole entry: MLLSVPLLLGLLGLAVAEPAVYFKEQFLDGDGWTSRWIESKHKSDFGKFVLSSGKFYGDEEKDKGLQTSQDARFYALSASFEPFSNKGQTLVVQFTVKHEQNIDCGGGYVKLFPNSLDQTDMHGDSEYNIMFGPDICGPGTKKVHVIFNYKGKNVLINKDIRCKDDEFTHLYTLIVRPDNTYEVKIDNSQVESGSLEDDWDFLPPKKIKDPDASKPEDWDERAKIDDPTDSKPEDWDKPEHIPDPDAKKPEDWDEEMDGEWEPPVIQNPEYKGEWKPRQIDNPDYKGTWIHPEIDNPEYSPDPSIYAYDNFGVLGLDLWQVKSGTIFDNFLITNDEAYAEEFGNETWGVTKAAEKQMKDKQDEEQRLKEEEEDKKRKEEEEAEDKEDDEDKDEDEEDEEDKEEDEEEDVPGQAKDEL
# UniProt Q9UBB4: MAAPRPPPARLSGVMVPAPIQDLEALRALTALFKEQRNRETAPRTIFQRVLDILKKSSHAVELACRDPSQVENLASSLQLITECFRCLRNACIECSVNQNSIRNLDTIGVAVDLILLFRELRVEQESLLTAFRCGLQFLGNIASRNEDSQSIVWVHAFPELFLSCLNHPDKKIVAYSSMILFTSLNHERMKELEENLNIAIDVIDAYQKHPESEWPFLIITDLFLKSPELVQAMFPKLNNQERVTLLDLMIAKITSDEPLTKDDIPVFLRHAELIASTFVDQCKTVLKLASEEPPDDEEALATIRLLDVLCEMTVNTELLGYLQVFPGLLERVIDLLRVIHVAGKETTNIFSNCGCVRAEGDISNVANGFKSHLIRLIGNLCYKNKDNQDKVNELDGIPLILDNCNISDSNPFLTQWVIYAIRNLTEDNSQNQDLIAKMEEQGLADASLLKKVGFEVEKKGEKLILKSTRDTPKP
# UniProt Q9H0E9, whole entry: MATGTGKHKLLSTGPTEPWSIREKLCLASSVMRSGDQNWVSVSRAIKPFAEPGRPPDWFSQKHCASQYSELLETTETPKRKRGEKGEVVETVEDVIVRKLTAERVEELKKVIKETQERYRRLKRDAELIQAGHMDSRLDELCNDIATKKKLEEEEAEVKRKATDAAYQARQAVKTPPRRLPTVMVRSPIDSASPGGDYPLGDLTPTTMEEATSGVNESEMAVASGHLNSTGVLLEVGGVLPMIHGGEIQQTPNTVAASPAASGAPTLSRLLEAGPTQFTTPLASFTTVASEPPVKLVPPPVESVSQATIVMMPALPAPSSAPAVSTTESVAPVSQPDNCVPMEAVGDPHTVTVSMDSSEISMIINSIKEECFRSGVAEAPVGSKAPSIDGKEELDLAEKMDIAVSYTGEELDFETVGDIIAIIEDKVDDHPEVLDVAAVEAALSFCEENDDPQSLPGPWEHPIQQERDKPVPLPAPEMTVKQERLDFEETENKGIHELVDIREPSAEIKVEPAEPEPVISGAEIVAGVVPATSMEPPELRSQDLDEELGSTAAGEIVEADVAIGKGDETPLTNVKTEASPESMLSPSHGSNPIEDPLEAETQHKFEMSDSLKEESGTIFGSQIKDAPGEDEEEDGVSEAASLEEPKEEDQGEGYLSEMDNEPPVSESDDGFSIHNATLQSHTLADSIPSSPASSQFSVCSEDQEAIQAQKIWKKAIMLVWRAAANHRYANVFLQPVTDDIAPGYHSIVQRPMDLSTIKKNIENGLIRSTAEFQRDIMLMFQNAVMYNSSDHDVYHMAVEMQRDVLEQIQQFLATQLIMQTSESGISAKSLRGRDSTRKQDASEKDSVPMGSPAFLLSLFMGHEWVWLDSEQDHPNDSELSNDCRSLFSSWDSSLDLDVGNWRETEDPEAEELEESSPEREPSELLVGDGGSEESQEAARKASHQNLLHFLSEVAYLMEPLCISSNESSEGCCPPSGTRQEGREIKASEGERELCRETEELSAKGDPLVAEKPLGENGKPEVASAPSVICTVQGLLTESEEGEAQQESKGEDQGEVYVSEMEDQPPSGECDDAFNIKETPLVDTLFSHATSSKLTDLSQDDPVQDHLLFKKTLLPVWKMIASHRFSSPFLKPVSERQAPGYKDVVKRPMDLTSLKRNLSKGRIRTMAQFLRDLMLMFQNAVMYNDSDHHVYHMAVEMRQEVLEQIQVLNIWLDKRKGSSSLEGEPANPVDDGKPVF
# UniProt P61769, whole entry: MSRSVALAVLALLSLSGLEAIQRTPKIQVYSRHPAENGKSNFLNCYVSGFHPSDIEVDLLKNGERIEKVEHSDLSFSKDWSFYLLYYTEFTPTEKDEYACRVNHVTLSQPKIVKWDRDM
# This is one part of the list.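 How the source made its calls: active = dose-dependent thermal stabilisation significant by F-test of dose-response against flat model at 10% FDR; inactive = not significant.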
# Compound: Nc1nc2c(ncn2[C@@H]2O[C@H](COP(=O)(O)OP(=O)(O)OP(=O)(O)O)[C@@H](O)[C@H]2O)c(=O)[nH]1
# Assay: dose-dependent thermal stabilisation call (2D-TPP, DLPTP, 10% FDR) (binary (1 = stabilised)); higher = stabilised by the compound
# Settings: system: Jurkat gel-filtered lysate; concentration range 1-500 µM
row,Target,dose-dependent thermal stabilisation call
1,BNIP2 (UniProt Q12982),inactive: 0
2,ARID4B (UniProt Q4LE39),inactive: 0
3,C1orf52 (UniProt Q8N6N3),inactive: 0
4,ARSA (UniProt P15289),inactive: 0
5,ASNS (UniProt P08243),active: 1
6,BANF1 (UniProt O75531),active: 1
7,ARRB1 (UniProt P49407),inactive: 0
8,ARID1B (UniProt Q8NFD5),inactive: 0
9,ASNA1 (UniProt O43681),active: 1
10,BCL10 (UniProt O95999),inactive: 0
11,BZW2 (UniProt Q9Y6E2),inactive: 0
12,C12orf45 (UniProt Q8N5I9),inactive: 0
13,ARHGAP4 (UniProt P98171),active: 1
14,C9orf40 (UniProt Q8IXQ3),inactive: 0
15,CAMK1D (UniProt Q8IU85),inactive: 0
16,BLM (UniProt P54132),inactive: 0
17,CALR (UniProt P27797),inactive: 0
18,ASNSD1 (UniProt L0R819),inactive: 0

row,Target,dose-dependent thermal stabilisation call
1,BMI1 (UniProt P35226),inactive: 0
2,ATXN10 (UniProt Q9UBB4),inactive: 0
3,CANX (UniProt P27824),inactive: 0
4,C9orf72 (UniProt Q96LT7),inactive: 0
5,ARSB (UniProt P15848),inactive: 0
6,BRD8 (UniProt Q9H0E9),inactive: 0
7,ARHGDIA (UniProt P52565),inactive: 0
8,C19orf53 (UniProt Q9UNZ5),inactive: 0
9,ASS1 (UniProt P00966),inactive: 0
10,BLOC1S3 (UniProt Q6QNY0),inactive: 0
11,C12orf57 (UniProt Q99622),inactive: 0
12,CAPZA2 (UniProt P47755),inactive: 0
13,CAMK2D (UniProt Q13557),inactive: 0
14,ASL (UniProt P04424),inactive: 0
15,B2M (UniProt P61769),inactive: 0
16,BTBD11 (UniProt A6QL63),inactive: 0
17,CAND1 (UniProt Q86VP6),active: 1
18,BRCA2 (UniProt P51587),inactive: 0

# Part of the list above, with bars between the fields:
row | Target | dose-dependent thermal stabilisation call
10 | BLOC1S3 (UniProt Q6QNY0) | inactive: 0
12 | CAPZA2 (UniProt P47755) | inactive: 0
